Assay results from patent publication US10188754B2, “Compositions and methods for chemical exchange saturation transfer (CEST) based magnetic resonance imaging (MRI)” (THE JOHNS HOPKINS UNIVERSITY, priority 2013, dated 2019).
Some results were stated once for a whole list of compounds, not compound by compound.

Assay type: physicochemical
Details: Table 2; 10 mM, pH 7.3-7.4, tsat = 3 sec, ω1 = 3.6 μT, 37° C.; listed as compound 17

Nc1ccc(C(=O)O)c(O)c1 [Compound 17]
Signal (ppm): slightly downfield
